{"sequences": {"note": "Chains of the proteins cited; added tags and fusions are not shown. Lines headed by an entry give the natural chain unless they say otherwise; changes in a name come on top.", "UniProt P51450": "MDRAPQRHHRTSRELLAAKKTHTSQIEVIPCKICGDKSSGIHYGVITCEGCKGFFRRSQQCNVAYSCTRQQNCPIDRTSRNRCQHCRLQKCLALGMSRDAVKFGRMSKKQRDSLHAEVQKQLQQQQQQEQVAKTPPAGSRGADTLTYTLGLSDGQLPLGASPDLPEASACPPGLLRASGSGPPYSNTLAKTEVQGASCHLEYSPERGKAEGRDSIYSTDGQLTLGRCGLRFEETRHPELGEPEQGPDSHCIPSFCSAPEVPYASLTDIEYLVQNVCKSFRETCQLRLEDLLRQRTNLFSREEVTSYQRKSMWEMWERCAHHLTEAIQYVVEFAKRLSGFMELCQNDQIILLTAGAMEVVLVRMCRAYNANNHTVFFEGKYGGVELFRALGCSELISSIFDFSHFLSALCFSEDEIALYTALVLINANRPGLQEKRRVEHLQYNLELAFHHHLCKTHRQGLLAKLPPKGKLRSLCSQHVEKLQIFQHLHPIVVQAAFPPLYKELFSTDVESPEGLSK"}, "source": "PubChem BioAssay AID2551", "about": "(National Center for Advancing Translational Sciences (NCATS), 2010)", "note": "Several values for one entry are separate records, joined by “and”; a condition that tells them apart may be missing. Identical values can stand only once. About 17,000 (5.5%) of roughly 310,000 compounds were called active. Inconclusive means that the source gave no clear call. Such entries were picked first, then a sample of the others. Calls come from the whole dose curve; as a rule, active = well fitted inhibition curve with a large enough effect; inconclusive = small, poorly fitted or top-dose-only effect, or effect the other way; inactive = no such curve, though single readings can be large or run the other way. A potency beside an inconclusive call is a rough fit, not a confirmed value. % is set by controls: 0 for no effect and ±100 for the full control effect; potency is the fitted concentration of half-maximal effect."}
{"molecular_target": "Nuclear receptor ROR-gamma (Mus musculus) (UniProt P51450)", "assay": "qHTS for inhibitors of ROR gamma transcriptional activity; note: nearly all actives have a fitted effect of over 60% in size", "conditions": "Drosophila S2 Gal4-RORgamma UAS-luciferase reporter, 20 h; activity change, negative = inhibition: at 53.6 µM (top of the series)", "procedure,_shortened": "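ROR gamma transcriptional activity was tracked as Gal4-UAS luciferase output in stably transfected Drosophila Schneider cells, with compound added 1 hr before 700 uM copper sulfate induction and a 20 hr ambient-temperature incubation.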"}
{"molecule": "CCCC(=O)OCCNc1cc(Sc2nccn2C)c2nonc2c1[N+](=O)[O-]", "Potency": "active: 5.62 µM"}
{"molecule": "Cc1nn(-c2ccccc2)c(C)c1/C=N/n1c(-c2ccc(Cl)cc2)n[nH]c1=S", "Potency": "active: 12.6 µM"}
{"molecule": "COc1ccc(Cl)cc1C(=O)NNC(=S)NC(=O)c1cc(-c2ccc(Cl)cc2)nc2ccccc12", "Potency": "active: 1.26 µM"}
{"molecule": "CCOC(=O)c1cnn(-c2nc(C)nc3sc4c(c23)CCC4)c1N", "activity change, negative = inhibition": "inactive: -2.46% [at 10 µM]"}
{"molecule": "Cc1cc(C(=O)COC(=O)c2ccc[nH]c2=O)c(C)n1-c1ccc(F)cc1", "Potency": "active: 10 µM"}
{"molecule": "O=C(Nc1cccc(C(F)(F)F)c1)C1CCCN1S(=O)(=O)c1cccc2cccnc12", "note": "(stereo unspecified)", "Potency": "inconclusive: 35.5 µM [activator, single point]"}
{"molecule": "COc1cccc(NC(=O)C(=O)N/N=C/c2cc(C)n(-c3ccc(Cl)c(Cl)c3)c2C)c1", "Potency": "inconclusive: 7.94 µM [activator, partial curve]"}
{"molecule": "COc1ccc(N2Cc3ccc(C(=O)N/N=C\\c4ccc(O)cc4O)cc3C2)cc1", "Potency": "inconclusive: 35.5 µM [inhibitor, single point]"}
{"molecule": "Cc1cc([N+](=O)[O-])ccc1NC1CCCC1", "Potency": "inconclusive: 35.5 µM [activator, single point]"}
{"molecule": "CC(C)(C)c1ccc2c(c1)OC(C(=O)N/N=C/c1ccc([N+](=O)[O-])o1)CO2", "note": "(stereo unspecified)", "Potency": "inconclusive: 12.6 µM [inhibitor, single point]"}
{"molecule": "Cc1ccc(-n2c(N)c(C(=O)Nc3ccccc3F)sc2=S)cc1C", "activity change, negative = inhibition": "inactive: 28.1%"}
{"molecule": "COc1ccc(/C=N\\NC(=O)CC(=O)Nc2cccc(Cl)c2)cc1OC", "Potency": "inconclusive: 22.4 µM [activator, single point]"}
{"molecule": "Cc1cc(C(=O)N/N=C/c2cc(Br)cc([N+](=O)[O-])c2O)c2ccccc2n1", "Potency": "active: 2 µM"}
{"molecule": "COC(=O)c1sccc1NC(=O)Nc1ccc(F)cc1", "Potency": "inconclusive: 0.891 µM [activator, full curve]"}
{"molecule": "O=C(CSCC(=O)N1CCCCC1)Nc1nc(-c2cccs2)cs1", "Potency": "inconclusive: 15.8 µM [activator, partial curve, poor fit]"}
{"molecule": "CCN(C(=O)COC(=O)c1cc(-c2ccc3cc(OC)ccc3c2)nc2ccccc12)C1CCS(=O)(=O)C1", "note": "(stereo unspecified)", "Potency": "inconclusive: 14.1 µM [inhibitor, single point]"}
{"molecule": "CC1CN(S(=O)(=O)c2ccc(C(=O)Nc3ccc(S(=O)(=O)Nc4nccs4)cc3)cc2)CC(C)O1", "note": "(stereo unspecified)", "Potency": "inconclusive: 8.91 µM [activator, partial curve]"}
{"molecule": "CN(Cc1ccccc1)C(=O)CN1C(=O)COc2ccc(S(=O)(=O)N3CCCC3)cc21", "activity change, negative = inhibition": "inactive: -11.6%"}
{"molecule": "CCOc1ccccc1NC(=O)CCS(=O)(=O)c1cccc2nonc12", "activity change, negative = inhibition": "inactive: 21.1%"}
{"molecule": "COc1cc2ccccc2cc1C(=O)NC(=S)Nc1cccc(C(=O)O)c1", "Potency": "inconclusive: 6.31 µM [activator, single point]"}
{"molecule": "O=C(CSc1ccccc1)N1CCN(c2ccccn2)CC1", "Potency": "inconclusive: 11.2 µM [activator, partial curve]"}
{"molecule": "COc1ccc(-c2noc(CCCC(=O)NC3CCCC3)n2)cc1OC", "activity change, negative = inhibition": "inactive: -9.96%"}
{"molecule": "CCCSc1nc2c(cnn2-c2ccc(C)c(C)c2)c(=O)[nH]1", "activity change, negative = inhibition": "inactive: -26.9%"}
{"molecule": "COc1cc2c(C(=O)NCc3ccc4c(c3)OCO4)cn(CC(C)C)c(=O)c2cc1OC", "Potency": "inconclusive: 10 µM [inhibitor, single point]"}
{"molecule": "Clc1ccc(-c2c[n+](Cc3cccc(Cl)c3)c3n2CCC3)cc1", "Potency": "inconclusive: 11.2 µM [activator, partial curve]"}
{"molecule": "COc1ccc(-c2[nH]c(-c3cc(OC)c4c(c3)OCO4)nc2-c2ccccc2)cc1", "Potency": "inconclusive: 3.16 µM [activator, full curve, poor fit]"}
{"molecule": "O=C(CCS(=O)(=O)c1ccc(Br)cc1)Nc1ccccc1Cl", "activity change, negative = inhibition": "inactive: 4.35%"}
{"molecule": "Nc1nc(NCCCN2CCOCC2)nc(Nc2cccc(Cl)c2)c1[N+](=O)[O-]", "activity change, negative = inhibition": "inactive: -5.79%"}
{"molecule": "Cc1ccn(CC(=O)N/N=C/c2cc([N+](=O)[O-])ccc2O)n1", "Potency": "inconclusive: 14.1 µM [inhibitor, single point]"}
{"molecule": "CC1CCCC(C)N1NC(=S)Nc1ccc(OC(F)F)cc1", "note": "(stereo unspecified)", "Potency": "active: 3.16 µM"}
{"molecule": "CC(C)CC1c2[nH]c3ccccc3c2CCN1C(=O)CCC(=O)N(C)C", "note": "(stereo unspecified)", "activity change, negative = inhibition": "inactive: 25.4%"}
{"molecule": "O=C(Nc1ccc(N2CCN(C(=O)c3ccco3)CC2)c(Cl)c1)c1cc2ccccc2o1", "Potency": "inconclusive: 8.91 µM [activator, partial curve]"}
{"molecule": "Cc1ccccc1CSc1nnc(C)c(=O)[nH]1", "Potency": "inconclusive: 35.5 µM [activator, single point]"}
{"molecule": "COc1ccc(-c2nc(-c3ccccc3)oc2Nc2ccccc2C)cc1", "Potency": "inactive"}
{"molecule": "O=C(COc1ccc2cc(Br)ccc2c1Br)N1CCOCC1", "activity change, negative = inhibition": "inactive: 32.8%"}
{"molecule": "O=C(Cc1ccc([N+](=O)[O-])cc1)N1CCN(c2ccc([N+](=O)[O-])cc2)CC1", "Potency": "inconclusive: 31.6 µM [activator, single point]"}
{"molecule": "COc1ccc(NS(=O)(=O)c2ccc(NC(=O)Cc3cccs3)cc2)cc1", "Potency": "inconclusive: 22.4 µM [activator, single point]"}
{"molecule": "OCC1(Cc2ccccc2)CCCN(Cc2ccc(-c3ccco3)cc2)C1", "note": "(stereo unspecified)", "activity change, negative = inhibition": "inactive: 1.92%"}
{"molecule": "Cc1c(N=Cc2c(O)n(Cc3ccco3)c(=O)c3ccccc23)c(=O)n(-c2ccccc2)n1C", "Potency": "inconclusive: 7.08 µM [activator, partial curve, poor fit] and inconclusive: 15.8 µM [activator, single point]"}
{"molecule": "O=C(CCc1ccccc1)NC(=S)Nc1ccccc1[N+](=O)[O-]", "Potency": "active: 10 µM"}
{"molecule": "COCCN=c1scc(-c2ccc3c(c2)NC(=O)CO3)n1/N=C(\\C)c1ccc(O)cc1", "Potency": "inconclusive: 17.8 µM [inhibitor, single point]"}
{"molecule": "Cc1cccc(C2c3[nH]c4ccccc4c3CCN2Cc2cccn2-c2ncccn2)c1", "note": "(stereo unspecified)", "Potency": "inconclusive: 35.5 µM [inhibitor, single point]"}
{"molecule": "Fc1cccc(F)c1/C=N/Nc1ccccn1", "Potency": "inconclusive: 35.5 µM [inhibitor, single point]"}
{"molecule": "CSc1cccc(N=C2C(=O)Nc3ccccc32)c1", "Potency": "inconclusive: 4.47 µM [activator, partial curve]"}
{"molecule": "CCOP(=O)(OCC)c1nc(/C=C/c2ccccc2)oc1NCc1ccc(OC)cc1", "Potency": "inconclusive: 20 µM [inhibitor, single point]"}
{"molecule": "OCCN(Cc1ccccc1)C(=S)NC1CCCCC1", "Potency": "inconclusive: 12.6 µM [inhibitor, partial curve, poor fit]"}
{"molecule": "O=C(NC1CCCN(Cc2ccc(Cl)cc2)C1)c1cnc2ccccn2c1=O", "note": "(stereo unspecified)", "Potency": "inconclusive: 0.0045 µM [activator, full curve, poor fit]"}
{"molecule": "O=C(N/N=C\\c1cn(-c2ccccc2)nc1-c1ccccc1)c1ccc(Br)o1", "Potency": "active: 1.41 µM"}
{"molecule": "Cc1nn(C)cc1/C=N/NC(=S)Nc1ccccc1", "Potency": "active: 0.891 µM"}
{"molecule": "Cc1nn(C)c(C(=O)Nc2ccn(C34CC5CC(CC(C5)C3)C4)n2)c1[N+](=O)[O-]", "activity change, negative = inhibition": "inactive: -2.39%"}
{"molecule": "CCOC(=O)NNc1ccc2nonc2c1[N+](=O)[O-]", "activity change, negative = inhibition": "inactive: -35.4%"}
{"molecule": "Cc1ccc(N2C(=O)N(CC(=O)Nc3ccc(C)cc3C)C(=O)C2C)cc1", "note": "(stereo unspecified)", "Potency": "inconclusive: 35.5 µM [activator, single point]"}
{"molecule": "CCOC(=O)/C=C/C(=O)Nc1ccc(S(=O)(=O)N2CCCCCC2)cc1", "activity change, negative = inhibition": "inactive: -30.3%"}
{"molecule": "Cc1nc2ccccn2c1C(=O)NCc1ccc2c(c1)OCO2", "Potency": "inconclusive: 10 µM [activator, partial curve]"}
{"molecule": "O=C(Nc1nnc(C2CC2)s1)C1Cc2ccccc2CN1S(=O)(=O)c1ccccc1F", "note": "(stereo unspecified)", "Potency": "active: 8.91 µM"}
{"molecule": "CCc1cc(/C(Cc2csc(C)n2)=N/O)c(O)cc1O", "activity change, negative = inhibition": "inactive: -40.2%"}
{"molecule": "COc1ccc(-c2nc3cnc(N4CCOCC4)nc3n(C[C@H]3CCCO3)c2=O)cc1", "activity change, negative = inhibition": "inactive: -8.98%"}
{"molecule": "CCCOC(=O)c1ccc(Oc2c(-c3ccc(O)cc3O)n[nH]c2C)cc1", "Potency": "inconclusive: 35.5 µM [inhibitor, single point]"}
{"molecule": "COc1ccc(C2c3[nH]c4ccccc4c3CCN2CCCn2cccn2)c(C)c1C", "note": "(stereo unspecified)", "activity change, negative = inhibition": "inactive: -6.47%"}
{"molecule": "CCn1c(C)nc2cc(C(=O)N/N=C/c3cccc(OC)c3O)ccc21", "Potency": "active: 0.316 µM"}
{"molecule": "Cc1cnc(CNc2nc(-c3ccccc3C)nc3ccccc23)cn1", "activity change, negative = inhibition": "inactive: 0.974%"}
{"molecule": "COc1cc2cc3c4c(cc(OC)c(OC)c4c2cc1OC)CCN3C", "Potency": "active: 2.82 µM"}
{"molecule": "Cc1ccnc(NS(=O)(=O)c2ccc(NC(=O)CC(C)c3ccccc3)cc2)n1", "note": "(stereo unspecified)", "Potency": "inconclusive: 4.47 µM [activator, full curve, poor fit]"}
{"molecule": "O=C(Nc1c(F)cc(F)cc1Br)c1ccco1", "Potency": "inconclusive: 7.94 µM [inhibitor, partial curve, poor fit]"}
{"molecule": "Cc1ccc(SCCNC(=S)Nc2cc(C)ccc2C)cc1", "Potency": "active: 6.31 µM"}
{"molecule": "Oc1ccc(Br)cc1-c1cc(-c2ccc(Cl)cc2)n[nH]1", "Potency": "inconclusive: 5.62 µM [inhibitor, single point]"}
{"molecule": "CCC(=O)NCCc1nc2cc(NC(=O)Nc3ccccc3)ccc2n1C", "Potency": "inconclusive: 10 µM [inhibitor, partial curve]"}
{"molecule": "C=CCOc1ccc(Br)cc1/C=C1/SC(=Nc2ccc(C(=O)O)cc2)NC1=O", "activity change, negative = inhibition": "inactive: -5.86%"}
{"molecule": "CC(C)(C)NC(=O)C(c1ccco1)N(Cc1ccc2c(c1)OCO2)C(=O)c1snc(C(N)=O)c1N", "note": "(stereo unspecified)", "Potency": "inconclusive: 14.1 µM [activator, single point]"}
{"molecule": "C[C@H]1[C@H](NC(=O)/C(=N/OC(C)(C)C(=O)O)c2csc(N)n2)C(=O)N1S(=O)(=O)O", "note": "(stereo in doubt)", "activity change, negative = inhibition": "inactive: 9.44% [at 2.98 µM]"}
{"molecule": "CCCCCCC1(C)NC(=S)N(c2ccccc2)N1", "note": "(stereo unspecified)", "Potency": "active: 7.08 µM"}
